Test results taken from the supplement of paper PMC10849652.
The other results are listed elsewhere or left out.

The chains behind the UniProt entries cited, without tags or fusion partners. Where a name states a change or a piece, a line headed by the entry shows the natural chain unless it says otherwise.
UniProt Q96BR6: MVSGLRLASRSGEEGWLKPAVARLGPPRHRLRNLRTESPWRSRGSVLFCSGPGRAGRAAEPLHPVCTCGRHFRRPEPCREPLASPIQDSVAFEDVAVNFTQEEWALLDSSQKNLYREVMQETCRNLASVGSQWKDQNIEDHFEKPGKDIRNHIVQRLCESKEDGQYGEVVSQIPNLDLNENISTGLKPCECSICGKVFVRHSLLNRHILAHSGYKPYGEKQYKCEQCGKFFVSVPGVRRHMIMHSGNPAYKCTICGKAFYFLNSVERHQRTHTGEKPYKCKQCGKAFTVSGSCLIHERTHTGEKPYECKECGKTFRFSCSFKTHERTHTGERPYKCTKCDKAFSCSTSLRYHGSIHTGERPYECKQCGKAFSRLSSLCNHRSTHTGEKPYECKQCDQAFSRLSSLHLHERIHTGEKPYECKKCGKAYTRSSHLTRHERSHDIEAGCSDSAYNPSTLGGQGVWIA
UniProt Q15776: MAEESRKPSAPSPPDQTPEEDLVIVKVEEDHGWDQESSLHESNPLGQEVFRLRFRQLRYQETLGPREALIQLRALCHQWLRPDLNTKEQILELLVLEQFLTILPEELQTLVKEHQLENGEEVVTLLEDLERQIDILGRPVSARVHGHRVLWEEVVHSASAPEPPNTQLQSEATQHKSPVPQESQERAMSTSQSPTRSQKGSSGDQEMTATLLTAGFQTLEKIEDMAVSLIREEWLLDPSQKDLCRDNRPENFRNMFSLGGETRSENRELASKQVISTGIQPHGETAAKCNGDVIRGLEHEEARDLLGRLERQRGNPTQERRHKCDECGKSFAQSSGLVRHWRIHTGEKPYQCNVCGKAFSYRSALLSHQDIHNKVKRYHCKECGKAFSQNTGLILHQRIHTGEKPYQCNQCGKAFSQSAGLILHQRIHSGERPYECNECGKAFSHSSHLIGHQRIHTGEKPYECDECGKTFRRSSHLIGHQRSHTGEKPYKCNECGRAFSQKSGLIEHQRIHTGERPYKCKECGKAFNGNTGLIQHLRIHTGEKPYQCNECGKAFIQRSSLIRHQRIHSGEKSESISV
UniProt Q9C0G0: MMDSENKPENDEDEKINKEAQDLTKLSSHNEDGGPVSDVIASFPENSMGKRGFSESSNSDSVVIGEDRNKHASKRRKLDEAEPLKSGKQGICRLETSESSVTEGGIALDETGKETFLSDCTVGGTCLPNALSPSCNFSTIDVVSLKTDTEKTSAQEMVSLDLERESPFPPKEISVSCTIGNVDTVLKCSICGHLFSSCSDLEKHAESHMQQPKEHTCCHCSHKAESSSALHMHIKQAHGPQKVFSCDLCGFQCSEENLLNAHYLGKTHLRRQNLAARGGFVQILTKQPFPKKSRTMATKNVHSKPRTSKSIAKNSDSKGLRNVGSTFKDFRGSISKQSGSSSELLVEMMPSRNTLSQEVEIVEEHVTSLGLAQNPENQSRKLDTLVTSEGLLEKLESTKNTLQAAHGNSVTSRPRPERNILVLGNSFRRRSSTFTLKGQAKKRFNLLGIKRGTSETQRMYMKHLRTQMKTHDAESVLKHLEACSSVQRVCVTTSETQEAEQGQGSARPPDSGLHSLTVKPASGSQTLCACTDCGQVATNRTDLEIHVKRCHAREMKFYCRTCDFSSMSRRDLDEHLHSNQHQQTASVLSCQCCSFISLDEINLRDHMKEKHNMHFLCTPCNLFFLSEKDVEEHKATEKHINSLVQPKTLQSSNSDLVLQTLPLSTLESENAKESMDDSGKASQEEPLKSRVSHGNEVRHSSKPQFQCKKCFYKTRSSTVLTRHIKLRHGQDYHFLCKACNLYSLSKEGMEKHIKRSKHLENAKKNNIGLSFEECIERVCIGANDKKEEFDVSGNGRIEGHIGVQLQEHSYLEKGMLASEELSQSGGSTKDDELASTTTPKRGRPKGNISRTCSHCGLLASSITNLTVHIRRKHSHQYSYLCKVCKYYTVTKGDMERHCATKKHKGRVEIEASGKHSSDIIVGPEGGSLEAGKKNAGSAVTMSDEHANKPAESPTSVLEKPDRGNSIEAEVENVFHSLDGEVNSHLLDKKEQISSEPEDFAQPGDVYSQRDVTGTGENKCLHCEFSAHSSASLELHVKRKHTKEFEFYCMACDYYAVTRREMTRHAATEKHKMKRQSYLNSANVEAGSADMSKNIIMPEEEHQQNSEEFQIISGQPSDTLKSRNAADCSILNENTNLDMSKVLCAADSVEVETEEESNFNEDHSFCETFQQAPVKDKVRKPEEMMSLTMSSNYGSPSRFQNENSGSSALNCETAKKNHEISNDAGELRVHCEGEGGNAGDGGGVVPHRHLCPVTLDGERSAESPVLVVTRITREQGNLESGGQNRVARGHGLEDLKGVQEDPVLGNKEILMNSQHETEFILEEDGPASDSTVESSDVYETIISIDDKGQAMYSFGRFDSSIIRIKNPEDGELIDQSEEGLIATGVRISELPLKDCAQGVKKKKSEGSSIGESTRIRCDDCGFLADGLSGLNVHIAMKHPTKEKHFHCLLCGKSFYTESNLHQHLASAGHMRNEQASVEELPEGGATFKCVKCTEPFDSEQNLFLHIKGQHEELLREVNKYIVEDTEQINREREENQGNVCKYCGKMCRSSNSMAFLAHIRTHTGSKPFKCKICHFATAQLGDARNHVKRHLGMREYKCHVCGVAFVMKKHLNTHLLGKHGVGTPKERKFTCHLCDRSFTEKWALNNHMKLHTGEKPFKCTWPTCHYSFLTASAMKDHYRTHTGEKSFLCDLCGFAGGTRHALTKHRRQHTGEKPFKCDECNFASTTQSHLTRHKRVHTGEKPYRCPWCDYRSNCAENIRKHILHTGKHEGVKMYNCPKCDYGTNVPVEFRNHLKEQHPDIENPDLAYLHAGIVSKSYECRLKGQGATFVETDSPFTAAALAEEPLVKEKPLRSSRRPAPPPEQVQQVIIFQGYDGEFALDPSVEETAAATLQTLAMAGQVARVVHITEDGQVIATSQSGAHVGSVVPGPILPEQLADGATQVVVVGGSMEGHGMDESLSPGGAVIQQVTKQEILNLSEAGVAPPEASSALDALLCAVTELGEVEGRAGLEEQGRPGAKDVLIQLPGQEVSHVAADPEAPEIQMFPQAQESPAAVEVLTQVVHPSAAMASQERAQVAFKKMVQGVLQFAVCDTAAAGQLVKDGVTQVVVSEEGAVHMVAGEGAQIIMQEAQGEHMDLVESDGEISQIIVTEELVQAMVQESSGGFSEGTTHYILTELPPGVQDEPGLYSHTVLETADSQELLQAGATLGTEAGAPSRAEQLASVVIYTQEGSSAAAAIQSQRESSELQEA
UniProt Q9ULU4: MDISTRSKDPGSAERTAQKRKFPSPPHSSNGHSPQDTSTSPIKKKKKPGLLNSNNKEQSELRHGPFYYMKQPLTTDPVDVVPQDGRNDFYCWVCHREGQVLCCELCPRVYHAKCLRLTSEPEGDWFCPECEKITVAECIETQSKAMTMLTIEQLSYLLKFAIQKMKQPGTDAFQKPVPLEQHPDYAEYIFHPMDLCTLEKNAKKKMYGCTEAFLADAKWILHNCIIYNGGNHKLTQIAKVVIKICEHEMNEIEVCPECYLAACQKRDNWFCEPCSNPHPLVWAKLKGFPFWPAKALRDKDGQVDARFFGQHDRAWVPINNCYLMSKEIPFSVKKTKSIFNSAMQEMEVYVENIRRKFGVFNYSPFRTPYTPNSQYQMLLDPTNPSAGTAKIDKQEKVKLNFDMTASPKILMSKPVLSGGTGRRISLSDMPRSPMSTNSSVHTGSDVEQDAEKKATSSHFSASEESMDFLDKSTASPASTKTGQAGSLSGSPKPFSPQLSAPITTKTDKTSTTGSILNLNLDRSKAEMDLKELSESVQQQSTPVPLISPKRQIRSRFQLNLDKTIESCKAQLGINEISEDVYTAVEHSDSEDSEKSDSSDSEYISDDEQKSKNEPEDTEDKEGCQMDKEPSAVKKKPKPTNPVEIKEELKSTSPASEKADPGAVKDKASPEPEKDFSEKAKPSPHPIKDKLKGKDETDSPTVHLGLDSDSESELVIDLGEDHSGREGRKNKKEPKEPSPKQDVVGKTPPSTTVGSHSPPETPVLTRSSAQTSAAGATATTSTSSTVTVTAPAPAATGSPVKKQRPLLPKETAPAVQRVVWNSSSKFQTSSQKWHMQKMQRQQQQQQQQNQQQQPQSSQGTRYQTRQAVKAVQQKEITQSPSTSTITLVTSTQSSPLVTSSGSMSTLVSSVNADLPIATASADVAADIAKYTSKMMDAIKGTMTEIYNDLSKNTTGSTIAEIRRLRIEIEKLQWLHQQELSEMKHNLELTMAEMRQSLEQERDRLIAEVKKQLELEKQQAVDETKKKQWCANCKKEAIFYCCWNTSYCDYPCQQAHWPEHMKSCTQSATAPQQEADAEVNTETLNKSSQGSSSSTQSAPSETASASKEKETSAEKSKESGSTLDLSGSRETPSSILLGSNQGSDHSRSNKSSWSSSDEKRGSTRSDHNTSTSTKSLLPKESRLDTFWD
UniProt Q9NRM2: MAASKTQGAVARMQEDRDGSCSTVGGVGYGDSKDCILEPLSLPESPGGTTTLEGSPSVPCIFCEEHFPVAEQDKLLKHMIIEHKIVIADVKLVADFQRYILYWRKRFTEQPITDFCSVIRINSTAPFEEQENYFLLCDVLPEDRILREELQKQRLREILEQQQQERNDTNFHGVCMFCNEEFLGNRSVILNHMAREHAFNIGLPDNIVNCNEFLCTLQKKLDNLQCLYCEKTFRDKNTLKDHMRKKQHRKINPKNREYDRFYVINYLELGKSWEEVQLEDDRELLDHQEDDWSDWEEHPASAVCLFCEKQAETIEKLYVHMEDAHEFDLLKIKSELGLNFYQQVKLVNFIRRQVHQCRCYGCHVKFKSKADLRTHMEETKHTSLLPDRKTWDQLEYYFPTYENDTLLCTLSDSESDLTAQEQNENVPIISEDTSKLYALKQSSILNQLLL
UniProt Q96IR2: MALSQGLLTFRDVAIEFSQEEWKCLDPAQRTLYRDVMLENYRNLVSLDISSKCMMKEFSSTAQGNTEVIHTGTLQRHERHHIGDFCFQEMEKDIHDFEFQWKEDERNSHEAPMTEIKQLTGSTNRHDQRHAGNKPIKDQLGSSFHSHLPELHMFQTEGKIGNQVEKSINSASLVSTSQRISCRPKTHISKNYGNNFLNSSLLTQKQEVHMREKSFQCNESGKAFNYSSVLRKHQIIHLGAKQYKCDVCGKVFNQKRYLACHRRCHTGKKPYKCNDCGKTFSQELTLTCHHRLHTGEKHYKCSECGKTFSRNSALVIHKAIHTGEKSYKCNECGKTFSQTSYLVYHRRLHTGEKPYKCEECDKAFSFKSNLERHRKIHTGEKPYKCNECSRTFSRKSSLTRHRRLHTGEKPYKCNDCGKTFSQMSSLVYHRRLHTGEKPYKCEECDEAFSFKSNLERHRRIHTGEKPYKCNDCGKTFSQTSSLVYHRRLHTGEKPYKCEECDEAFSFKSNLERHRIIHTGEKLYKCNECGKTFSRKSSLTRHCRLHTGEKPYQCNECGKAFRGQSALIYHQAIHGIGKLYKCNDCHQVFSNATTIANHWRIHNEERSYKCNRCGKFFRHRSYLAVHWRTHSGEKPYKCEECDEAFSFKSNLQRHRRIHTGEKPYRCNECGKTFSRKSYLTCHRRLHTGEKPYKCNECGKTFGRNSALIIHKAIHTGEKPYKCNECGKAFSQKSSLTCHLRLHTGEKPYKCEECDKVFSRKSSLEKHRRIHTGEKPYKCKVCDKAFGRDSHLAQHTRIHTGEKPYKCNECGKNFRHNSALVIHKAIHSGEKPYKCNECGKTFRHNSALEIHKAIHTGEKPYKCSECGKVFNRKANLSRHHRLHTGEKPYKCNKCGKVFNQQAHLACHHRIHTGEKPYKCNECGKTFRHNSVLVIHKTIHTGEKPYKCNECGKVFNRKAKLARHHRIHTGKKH
UniProt Q16587: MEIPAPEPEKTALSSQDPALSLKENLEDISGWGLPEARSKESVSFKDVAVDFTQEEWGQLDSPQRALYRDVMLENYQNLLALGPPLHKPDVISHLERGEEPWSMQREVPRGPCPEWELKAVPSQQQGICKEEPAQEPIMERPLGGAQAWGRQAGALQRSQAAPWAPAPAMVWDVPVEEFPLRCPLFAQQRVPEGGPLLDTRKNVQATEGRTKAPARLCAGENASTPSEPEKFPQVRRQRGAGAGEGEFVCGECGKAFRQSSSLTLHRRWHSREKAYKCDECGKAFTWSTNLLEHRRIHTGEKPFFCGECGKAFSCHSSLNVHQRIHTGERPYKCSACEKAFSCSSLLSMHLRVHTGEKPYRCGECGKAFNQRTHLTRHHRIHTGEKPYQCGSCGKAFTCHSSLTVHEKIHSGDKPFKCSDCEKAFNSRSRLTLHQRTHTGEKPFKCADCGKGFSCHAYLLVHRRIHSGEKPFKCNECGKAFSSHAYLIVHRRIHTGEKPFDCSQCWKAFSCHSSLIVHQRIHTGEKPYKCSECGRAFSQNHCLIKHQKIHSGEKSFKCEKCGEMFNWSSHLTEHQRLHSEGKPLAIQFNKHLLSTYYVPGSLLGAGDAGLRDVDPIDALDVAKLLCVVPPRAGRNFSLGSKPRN

Assays:
Assay in all cases: log2 fold change, soluble protein after heating vs DMSO (PISA); higher = thermal stabilisation; K562 lysate, 10 uM; active = over 0.2 and 3.5 SD of the protein, either way, in both replicates (recomputed)
[1] = compound: CS(=O)(=O)CCNCc1ccc(-c2ccc3ncnc(Nc4ccc(OCc5cccc(F)c5)c(Cl)c4)c3c2)o1 [lapatinib]
How it was run: (§1)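 Soluble protein was defined as the supernatant remaining after 21,000xg for 90 min, following pooling of heated aliquots and adjustment to 0.5% NP-40 at 4°C. Before that, crude K562 extract at 1 mg/mL protein in PBS pH 7.4 with 1 mM MgCl2 was treated with 10 μM compound for 30 min and heated for 3 min across 48°C-58°C. Quantification used TMTpro 16plex LC-MS/MS with channel sums equalised, and values are log-two fold changes in thermal stability relative to solvent controls from duplicates.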

[2] = compound: CS(=O)(=O)N1CCN(Cc2cc3nc(-c4cccc5[nH]ncc45)nc(N4CCOCC4)c3s2)CC1 [pictilisib]
How it was run: as §1

[3] = compound: C[C@@H](Oc1cc(-c2cnn(C3CCNCC3)c2)cnc1N)c1c(Cl)ccc(F)c1Cl [crizotinib]
How it was run: as §1

[4] = compound: C[C@H](C1=CC=C(C=C1)C(=O)NC2=C3C=CNC3=NC=C2)N
How it was run: as §1

[5] = compound: C[C@H](Nc1ncnc2nc[nH]c12)c1cc2cccc(Cl)c2c(=O)n1-c1ccccc1 [duvelisib]
How it was run: as §1

[6] = compound: Cc1cc(Nc2cc(CN3CCOCC3)c3nc(C)c(Cc4ccc(Cl)cc4F)n3n2)n[nH]1 [gandotinib]
How it was run: as §1

[7] = compound: Cc1ccc(-n2nc(C(C)(C)C)cc2NC(=O)Nc2ccc(OCCN3CCOCC3)c3ccccc23)cc1 [doramapimod]
How it was run: as §1

[8] = compound: Cc1ccc(NC(=O)c2ccc(CN3CC[C@H](N(C)C)C3)c(C(F)(F)F)c2)cc1Nc1nccc(-c2cncnc2)n1 [bafetinib]
How it was run: as §1

[9] = compound: Cc1cccc(CC(=O)N2CCc3c2ccc(-c2cn(C)c4ncnc(N)c24)c3F)n1
How it was run: as §1

[10] = compound: Cc1cn(-c2cc(NC(=O)c3ccc(C)c(Nc4nccc(-c5cccnc5)n4)c3)cc(C(F)(F)F)c2)cn1 [nilotinib]
How it was run: as §1

[11] = compound: Cc1nc(Nc2n[nH]c3c2CN(C(=O)N[C@H](CN(C)C)c2ccccc2)C3(C)C)c2sccc2n1
How it was run: as §1

[12] = compound: Cc1nc(Nc2ncc(C(=O)Nc3c(C)cccc3Cl)s2)cc(N2CCN(CCO)CC2)n1 [dasatinib]
How it was run: as §1

[13] = compound: Cc1ncc(-c2ccnc(Nc3ccc(S(C)(=O)=O)cc3)n2)n1C(C)C
How it was run: as §1

[14] = compound: Cn1cc(-c2ccc3c(c2)CCN3C(=O)Cc2cccc(C(F)(F)F)c2)c2c(N)ncnc21
How it was run: as §1

[15] = compound: Cn1cc(CNCC2CCN(c3ncc(C(=O)NO)cn3)CC2)c2ccccc21 [quisinostat]
How it was run: as §1

[16] = compound: Cn1cncc1[C@@](N)(c1ccc(Cl)cc1)c1ccc2c(c1)c(-c1cccc(Cl)c1)cc(=O)n2C [tipifarnib]
How it was run: as §1

[17] = compound: NC(=O)Nc1cc(-c2cccc(F)c2)sc1C(=O)N[C@H]1CCCNC1
How it was run: as §1

[18] = compound: NC(=O)c1cnc(N[C@@H]2CCCC[C@@H]2N)nc1Nc1cccc(-n2nccn2)c1
How it was run: as §1

[19] = compound: NC1(c2ccc(-c3nc4ccn5c(=O)[nH]nc5c4cc3-c3ccccc3)cc2)CCC1
How it was run: as §1

[20] = compound: Cc1cc(Nc2cc(N3CCN(C)CC3)nc(Sc3ccc(NC(=O)C4CC4)cc3)n2)n[nH]1 [tozasertib]
How it was run: as §1

Measured: log2 fold change

ZNF669 (UniProt Q96BR6)
inactive: [1] -0.073 | [2] -0.083 | [3] 0.189 | [4] -0.101 | [5] 0.111 | [6] -0.161 | [7] 0.186 | [8] -0.014 | [9] 0.066 | [10] -0.053 | [11] -0.111 | [12] -0.016 | [13] 0.097 | [14] 0.079 | [15] -0.05 | [16] 0.023 | [17] 0.156 | [18] 0.129 | [19] 0.09

ZYG11A (UniProt Q6WRX3)
inactive: [1] -0.301 | [2] 0.031 | [4] -0.306 | [6] 0.192 | [8] -0.378 | [9] 0.323 | [10] 0.151 | [11] -0.077 | [13] -0.227 | [16] -0.124 | [18] 0.085 | [19] -0.068

ZNF706 (UniProt Q9Y5V0)
inactive: [1] -0.013 | [2] 0.023 | [3] 0.023 | [4] -0.029 | [5] 0.033 | [6] 0.07 | [20] 0.061 | [7] 0.067 | [8] 0.028 | [9] 0.035 | [10] -0.01 | [11] -0.005 | [12] -0.102 | [13] -0.019 | [14] -0.05 | [15] 0.065 | [16] 0.013 | [17] -0.042 | [18] 0.002 | [19] -0.056

ZMYM2 (UniProt Q9UBW7)
inactive: [1] 0.028 | [2] -0.147 | [3] -0.079 | [4] 0.098 | [5] 0.028 | [6] -0.329 | [20] 0.046 | [7] 0.041 | [8] -0.024 | [9] -0.084 | [10] -0.04 | [11] 0.001 | [12] -0.023 | [13] -0.007 | [14] 0.035 | [15] -0.082 | [16] 0.08 | [17] 0.056 | [18] 0.099 | [19] -0.033

ZKSCAN8 (UniProt Q15776)
inactive: [1] 0.08 | [3] -0.151 | [5] 0.068 | [20] -0.014 | [7] 0.082 | [10] 0.05 | [11] 0.015 | [12] -0.096 | [13] -0.03 | [14] 0.026 | [15] -0.134 | [16] 0.101 | [17] 0.005 | [18] -0.029 | [19] -0.064

Retrieved one by one from above, two records:
ZKSCAN8 (UniProt Q15776)
inactive: [1] 0.08 | [3] -0.151 | [5] 0.068 | [20] -0.014 | [7] 0.082 | [10] 0.05 | [11] 0.015 | [12] -0.096 | [13] -0.03 | [14] 0.026 | [15] -0.134 | [16] 0.101 | [17] 0.005 | [18] -0.029 | [19] -0.064

ZMYM2 (UniProt Q9UBW7)
inactive: [1] 0.028 | [2] -0.147 | [3] -0.079 | [4] 0.098 | [5] 0.028 | [6] -0.329 | [20] 0.046 | [7] 0.041 | [8] -0.024 | [9] -0.084 | [10] -0.04 | [11] 0.001 | [12] -0.023 | [13] -0.007 | [14] 0.035 | [15] -0.082 | [16] 0.08 | [17] 0.056 | [18] 0.099 | [19] -0.033

More records follow.

ZNF609 (UniProt O15014)
inactive: [1] 0.023 | [2] -0.054 | [3] 0.026 | [4] -0.028 | [5] -0.042 | [6] 0.16 | [20] 0.024 | [7] -0.064 | [8] -0.111 | [9] 0.187 | [10] -0.14 | [11] -0.023 | [12] -0.014 | [13] 0.001 | [14] -0.044 | [15] -0.006 | [16] 0.01 | [17] 0.061 | [18] -0.015 | [19] 0.003

ZNF407 (UniProt Q9C0G0)
inactive: [1] 0 | [2] -0.167 | [4] -0.096 | [5] 0.082 | [6] 0.044 | [20] 0.031 | [8] -0.243 | [9] 0.131 | [12] -0.131 | [14] 0.191 | [18] -0.023 | [19] -0.116

ZMYND8 isoform 19 (UniProt Q9ULU4)
inactive: [1] -0.017 | [2] -0.044 | [3] -0.109 | [4] -0.105 | [5] -0.006 | [6] 0.092 | [20] 0.035 | [7] 0.001 | [8] -0.028 | [9] 0.049 | [10] -0.011 | [11] -0.056 | [12] -0.019 | [13] 0.022 | [14] 0.036 | [15] -0.073 | [16] -0.025 | [17] -0.004 | [18] 0.009 | [19] 0.043

ZNHIT3 (UniProt Q15649)
inactive: [1] 0.044 | [2] 0.075 | [3] -0.022 | [4] 0.074 | [5] -0.027 | [6] 0 | [20] -0.134 | [7] 0.051 | [8] -0.147 | [9] 0.049 | [12] -0.044 | [14] 0.001 | [15] 0.044 | [17] -0.053 | [18] -0.062 | [19] 0.032

ZNF277 (UniProt Q9NRM2)
inactive: [1] -0.102 | [2] -0.069 | [3] -0.029 | [4] -0.101 | [5] -0.007 | [6] -0.034 | [20] -0.001 | [7] 0.012 | [8] -0.192 | [9] 0.081 | [10] -0.046 | [11] -0.027 | [12] -0.016 | [13] -0.022 | [14] 0.043 | [15] -0.008 | [16] 0.008 | [17] 0.037 | [18] -0.039 | [19] -0.026

ZWILCH (UniProt Q9H900)
inactive: [1] -0.032 | [2] -0.002 | [3] -0.056 | [4] -0.038 | [5] 0.001 | [6] -0.083 | [20] 0.009 | [7] 0.019 | [8] -0.009 | [9] 0.017 | [10] 0.029 | [11] 0.008 | [12] -0.033 | [13] 0 | [14] -0.004 | [15] -0.028 | [16] -0.045 | [17] 0.019 | [18] 0.017 | [19] 0.004

ZRANB2 (UniProt O95218)
inactive: [1] -0.004 | [2] 0.01 | [3] -0.031 | [4] 0.072 | [5] 0.031 | [6] -0.01 | [20] -0.012 | [7] 0.059 | [8] 0.031 | [9] -0.004 | [10] 0.032 | [11] 0.038 | [12] -0.057 | [13] 0.058 | [14] -0.011 | [15] 0.024 | [16] 0.014 | [17] -0.071 | [18] -0.022 | [19] -0.021

ZWINT (UniProt O95229)
inactive: [1] 0.004 | [2] -0.031 | [3] -0.019 | [4] -0.055 | [5] 0.02 | [6] 0.052 | [20] -0.027 | [7] -0.019 | [8] -0.038 | [9] -0.023 | [10] -0.034 | [11] 0.027 | [12] -0.017 | [13] 0.018 | [14] -0.005 | [15] -0.011 | [16] 0.021 | [17] -0.017 | [18] -0.029 | [19] -0.019

ZNF845 (UniProt Q96IR2)
inactive: [1] 0.012 | [2] -0.013 | [3] 0.018 | [4] -0.069 | [5] -0.023 | [6] 0.015 | [7] 0.16 | [8] -0.031 | [9] 0.017 | [10] 0 | [11] 0.087 | [12] -0.038 | [13] -0.053 | [14] 0.021 | [15] -0.033 | [16] -0.006 | [17] 0.122 | [18] 0.016 | [19] 0.163

ZNF428 (UniProt M0QXZ5)
inactive: [1] 0 | [2] -0.113 | [3] 0.006 | [4] 0.083 | [5] 0.114 | [6] 0.025 | [20] 0.002 | [7] 0.021 | [8] -0.015 | [9] -0.08 | [10] 0.035 | [11] -0.014 | [12] -0.094 | [13] 0.062 | [14] -0.007 | [15] 0.028 | [16] 0.065 | [17] 0.027 | [18] -0.052 | [19] 0.033

ZKSCAN3 (UniProt Q9BRR0)
inactive: [1] -0.112 | [2] 0.018 | [3] -0.023 | [4] 0.084 | [5] 0.019 | [6] -0.068 | [20] 0.053 | [7] 0.016 | [8] -0.119 | [9] -0.092 | [12] 0.125 | [14] -0.053 | [15] -0.027 | [17] 0.001 | [18] 0.247 | [19] -0.051

ZNF74 isoform 5 (UniProt Q16587)
inactive: [1] -0.1 | [2] 0.012 | [4] 0.11 | [5] 0.02 | [6] -0.032 | [20] -0.29 | [8] 0.3 | [9] -0.05 | [10] 0.043 | [11] 0.025 | [12] 0.133 | [13] -0.073 | [14] -0.047 | [16] 0.063 | [18] 0.008 | [19] 0.018
